“And” between values parts separate entries of the source, which are not always exact repeats. Equal entries are not always repeated. Structures can show the parent of a compound that is named as a salt. ± gives the standard deviation of the averaged measurements. This is one part of the list. Most values lie within the scatter of the assay; repeated measurements hardly agree.
Test system: A549
Test: surface PD-L1 immunofluorescence intensity relative to IFN-gamma-only control (ratio); higher = more PD-L1 expression
Settings: 10 µM; exposure time 24 h; IFN-gamma 100 ng/mL

SMILES | surface PD-L1 immunofluorescence intensity
Cc1cccc(Nc2cc(Cl)nc(SCC(=O)O)n2)c1C | 1.02 and 1.06
O=C(N/N=C/c1ccc([N+](=O)[O-])o1)c1ccc(O)cc1 [Nifuroxazide] | 0.994
NC(=O)c1ncn([C@@H]2O[C@H](CO)[C@@H](O)[C@H]2O)c1O [Mizoribine (Bredinin)] | 1.01
Cc1cn([C@@H]2C[C@@H](O)[C@H](CO)O2)c(=O)[nH]c1=O [Telbivudine (Sebivo, Tyzeka)] | 1.07
CN(C)CCCSc1ccccc1NC(=O)/C=C/c1ccccc1 [Cinanserin hydrochloride] | 0.955
COC(=O)[C@H]1[C@H]2C[C@@H]3c4[nH]c5cc(OC)ccc5c4CCN3C[C@H]2C[C@@H](OC(=O)c2cc(OC)c(OC)c(OC)c2)[C@@H]1OC [Reserpine] | 1 ± 0.1
COc1cc2c(cc1OC)-c1cc3ccc(OC)c(OC)c3c[n+]1CC2 [Palmatine chloride] | 1.14
CC(C)C[C@H](NC(=O)[C@@H](O)[C@H](N)Cc1ccccc1)C(=O)O [Bestatin] | 0.973
C=CCc1ccc(O)c(-c2ccc(O)c(CC=C)c2)c1 [Honokiol] | 1.06 ± 0.046
CNC(=C[N+](=O)[O-])NCCSCc1ccc(CN(C)C)o1 [Ranitidine hydrochloride] | 0.989 ± 0.038
CCOC(=O)Nc1ccc2c(c1)N(C(=O)CCN1CCOCC1)c1ccccc1S2 [Moricizine hydrochloride] | 1.07
O=c1c(-c2ccc(O)cc2)coc2cc(O)cc(O)c12 [Genistein] | 1.01 ± 0.043
C[C@H](NC(=O)Cc1cc(F)cc(F)c1)C(=O)N[C@@H]1C(=O)N(C)c2ccccc2-c2ccccc21 | 0.973
CSc1cccc(Nc2ncc3cc(-c4c(Cl)cccc4Cl)c(=O)n(C)c3n2)c1 | 1.28
[Cl-].[Li+] [Lithium Chloride] | 1.08
CCCCCCN(CCCCCC)C(=O)Cc1c(-c2ccc(F)cc2)[nH]c2ccccc12 | 1.07
CC(=O)NNC(=O)N1Cc2ccccc2Oc2ccc(Cl)cc21 | 1.07
OC1CCC(Nc2nc(-c3ccccc3)nc3[nH]ccc23)CC1 (centres undefined) | 1.02
CNC[C@H](O)c1cccc(O)c1 [Phenylephrine HCl] | 1.01
O=C(O[C@@H]1Cc2c(O)cc(O)cc2O[C@@H]1c1cc(O)c(O)c(O)c1)c1cc(O)c(O)c(O)c1 [Epigallocatechin gallate] | 0.875 ± 0.079
N#C[C@@H]1CCCN1C(=O)CNC12CC3CC(CC(O)(C3)C1)C2 [Vildagliptin (LAF-237)] | 0.996
COc1cc2ncnc(Nc3ccc(Cl)cc3F)c2cc1OC | 0.86
N[C@@H]1CCCN(c2c(/C=C3\SC(=O)NC3=O)cccc2-c2ccccc2)C1 | 1.07
Cc1cccc(CCN2CCC(C(=O)c3ccc(NS(C)(=O)=O)cc3)CC2)n1 [E-4031 dihydrochloride] | 0.981
CO[C@H]1C[C@@H]2CC[C@@H](C)[C@@](O)(O2)C(=O)C(=O)N2CCCC[C@H]2C(=O)O[C@H]([C@H](C)C[C@@H]2CC[C@@H](O)[C@H](OC)C2)CC(=O)[C@H](C)/C=C(\C)[C@@H](O)[C@@H](OC)C(=O)[C@H](C)C[C@H](C)/C=C/C=C/C=C/1C [Rapamycin] | 1
C#C[C@]1(O)CC[C@H]2[C@@H]3CCc4cc(OC)ccc4[C@H]3CC[C@@]21C [Ethynylestradiol 3-methyl ether] | 0.941
C#C[C@]1(O)CC[C@H]2[C@@H]3CCc4cc(OC)ccc4[C@H]3CC[C@@]21C [Mestranol] | 1.15

Single values from the list.
For surface PD-L1 immunofluorescence intensity, CC(=O)NNC(=O)N1Cc2ccccc2Oc2ccc(Cl)cc21 is entered as 1.07
For surface PD-L1 immunofluorescence intensity, CCOC(=O)Nc1ccc2c(c1)N(C(=O)CCN1CCOCC1)c1ccccc1S2 [Moricizine hydrochloride] is entered as 1.07

The list goes on.

SMILES | surface PD-L1 immunofluorescence intensity
CC(C)NCC(O)c1ccc(NS(C)(=O)=O)cc1 (centres undefined) [Sotalol hydrochloride] | 1.03 ± 0.084
CC1=C(C)C(=O)C(CCCCC#CCCCC#CCO)=C(C)C1=O | 0.952
CN(C)CCCCSC(=N)N | 1.02
COc1ccc2cccc(CCNC(C)=O)c2c1 [Agomelatine] | 1.03
COc1cc(C=O)ccc1O [Vanillin] | 1.05
Cc1[nH]c(/C=C2\C(=O)Nc3ccccc32)c(C)c1CCC(=O)O | 1.01 and 0.962
CC(=O)N1CCN(c2ccc(OCC3COC(Cn4ccnc4)(c4ccc(Cl)cc4Cl)O3)cc2)CC1 (centres undefined) [Ketoconazole] | 1.09 ± 0.15
CC(C)(C)NS(=O)(=O)c1cncc(-c2cc(F)c3nc(N)nn3c2)c1 | 1.01
O=C(O)P(=O)(O)O [Foscarnet Sodium] | 0.957
Clc1ccccc1CN1CCc2sccc2C1 [Ticlopidine hydrochloride] | 0.913
COc1cc(Br)c(S(=O)(=O)Nc2ccc(Cl)c(O[C@@H]3CCN(C)C3)c2)cc1OC | 0.991
CCN(CC)CCOC(=O)C1(c2ccc([N+](=O)[O-])cc2)CCCC1 [Nitrocaramiphen hydrochloride] | 0.961 ± 0.011
Cc1cc(NC(=O)C2=C(O)c3ccccc3S(=O)(=O)N2C)no1 [Isoxicam] | 0.871
CO[C@@]1(NC(=O)C2SC(=C(C(N)=O)C(=O)O)S2)C(=O)N2C(C(=O)O)=C(CSc3nnnn3C)CS[C@@H]21 (some centres undefined) [Cefotetan] | 1.01
CN(C)CCCN1c2ccccc2CCc2ccc(Cl)cc21 [Clomipramine hydrochloride] | 1.01 ± 0.1
C[C@H](CCC(=O)NCC(=O)O)[C@H]1CC[C@H]2[C@@H]3CC[C@@H]4C[C@H](O)CC[C@]4(C)[C@H]3C[C@H](O)[C@]12C [Glycodeoxycholic acid] | 1.04
COC(=O)C1=C(C)NC(C)=C(C(=O)OC)C1c1ccccc1[N+](=O)[O-] [Nifedipine] | 0.969 ± 0.11
CN(C)c1nc(N)c(C(=O)Nc2cccnc2)nc1Cl [ACDPP hydrochloride] | 0.866
N#Cc1ccc(NCCNCC(=O)N2CCC[C@H]2C#N)nc1 [NVP DPP 728 dihydrochloride] | 1.07
CO[C@@]1(NC(=O)C(C(=O)O)c2ccc(O)cc2)C(=O)N2C(C(=O)O)=C(CSc3nnnn3C)CO[C@@H]21 (some centres undefined) [Moxalactam disodium salt] | 0.979
C=CCc1cc(OC)c(O)c(C(=O)NCCO)c1 [Alibendol] | 1.17
CN(CCc1ccc(Cl)c(Cl)c1)CC(O)COc1ccc(NS(C)(=O)=O)cc1 (centres undefined) | 0.978 and 0.863
C#C[C@]1(O)CC[C@H]2[C@@H]3CCC4=CC(=O)CC[C@@H]4[C@H]3CC[C@@]21C [Norethindrone] | 0.828
C#C[C@]1(O)CC[C@H]2[C@@H]3CCC4=CC(=O)CC[C@@H]4[C@H]3CC[C@@]21C [Norethindrone (Norethisterone)] | 1.03
Nc1[nH]nc2nc3ccccc3nc12 | 1.02
Cc1cc2c(cc1C1(c3ccc(C(=O)O)cn3)CC1)C(C)(C)CCC2(C)C | 0.98
C#C[C@]1(OC(C)=O)CC[C@H]2[C@@H]3CCC4=C[C@@H](OC(C)=O)CC[C@@H]4[C@H]3CC[C@@]21C [Ethynodiol diacetate] | 1.03 ± 0.089

SMILES | surface PD-L1 immunofluorescence intensity
N[C@H]1CCN(O)C1=O | 1.09
CCOC(=O)C=Cc1ccc(O)c(OC)c1 [Ferulic acid ethylester] | 0.976
NC(=O)c1ccc2nc(-c3ccc(Oc4ccc(Cl)cc4)cc3)[nH]c2c1 | 1.02
COc1ccc([C@@H]2CNC(=O)C2)cc1OC1CCCC1 [(R)-(-)-Rolipram] | 0.98
Nc1ccc(S(=O)(=O)Nc2ncccn2)cc1 [Sulfadiazine] | 0.83
NS(=O)(=O)c1cc2c(cc1Cl)N=C(CSCc1ccccc1)NS2(=O)=O [Benzthiazide] | 1.05
Clc1ccc2c(c1)N=C(N1CCNCC1)c1ccccc1N2 [N-Desmethylclozapine] | 1.07
CC(=O)OC/C=C(C)/C=C/C=C(C)/C=C/C1=C(C)CCCC1(C)C [Retinyl acetate] | 0.937
O=C1C(CC[S+]([O-])c2ccccc2)C(=O)N(c2ccccc2)N1c1ccccc1 (centres undefined) [Sulfinpyrazone] | 0.867
O=C1NC(=O)/C(=C/c2ccc(-c3ccc(F)cc3O)o2)S1 | 0.979
CCCn1c(=O)c2[nH]c(-c3ccccc3)nc2n(CCC)c1=O [1,3-Dipropyl-8-phenylxanthine] | 1.01
COc1ccc(CCN(C)CCc2ccc(OC)c(OC)c2)cc1OC | 0.982
COc1ccc(CCN(C)CCc2ccc(OC)c(OC)c2)cc1OC [YS-035 hydrochloride] | 1
CC(=O)O[C@]1(C(C)=O)CC[C@H]2[C@@H]3C=C(C)C4=CC(=O)CC[C@@H]4[C@H]3CC[C@@]21C [Nomegestrol acetate] | 1.03
NC(=O)c1noc([C@H](CCCC2CCCCC2)CC(=O)NO)n1 | 1.18
CC1(CN2CCC(n3c(=O)[nH]c4ccccc43)CC2)OCc2ccccc2-n2cccc21 (centres undefined) | 1.03
CC(C)Oc1cccc(-n2c(CCc3c[nH]c4ccc(Br)cc34)nc3ccccc3c2=O)c1 | 1.15
Cc1c(NC(=O)c2ccc(C(C)(C)C)cc2)cccc1-c1cn(C)c(=O)c(Nc2ccc(C(=O)N3CCOCC3)cc2)n1 | 1.08
O=C(O)Cc1ccccc1Nc1c(Cl)cccc1Cl [Diclofenac sodium] | 1.11
O=C(O)Cc1ccccc1Nc1c(Cl)cccc1Cl [Diclofenac Diethylamine] | 0.969
Cc1nn(C)c2nc(NNC(=O)Nc3cc(Cl)nc(Cl)c3)cc(C(C)C)c12 | 0.901
C[C@@H](c1ncncc1F)[C@](O)(Cn1cncn1)c1ccc(F)cc1F [Voriconazole] | 1.05
CN[C@@H](C)[C@H]1[C@H](O)C[C@@]2(C)[C@@H]3CC[C@H]4C(C)(C)[C@@H](NC)CC[C@@]45C[C@@]35CC[C@]12C [Cyclovirobuxin D (Bebuxine)] | 0.859
CN1CCN(CCCN2c3ccccc3Sc3ccc(S(=O)(=O)N(C)C)cc32)CC1 [Thioproperazine dimesylate] | 0.941
C[C@@H]1CC(=O)NN=C1c1ccc(NN=C(C#N)C#N)cc1 [Levosimendan] | 0.968

An excerpt of these results, in CSV form.
SMILES,surface PD-L1 immunofluorescence intensity
COc1cc2c(cc1OC)-c1cc3ccc(OC)c(OC)c3c[n+]1CC2 [Palmatine chloride],1.14
CN(C)c1nc(N)c(C(=O)Nc2cccnc2)nc1Cl [ACDPP hydrochloride],0.866
COc1ccc([C@@H]2CNC(=O)C2)cc1OC1CCCC1 [(R)-(-)-Rolipram],0.98
CC1(CN2CCC(n3c(=O)[nH]c4ccccc43)CC2)OCc2ccccc2-n2cccc21 (centres undefined),1.03

Reference: the supplement of paper PMC8732350
